This is one part of the list.
Key:
Assay in all cases: log2 fold change, soluble protein after heating vs DMSO (PISA); higher = thermal stabilisation; K562 cells, 10 uM, 30 min; active = over 0.2 and 3.5 SD of the protein, either way, in both replicates (recomputed)
[1] = compound: C1=CC=C(C=C1)[C@H](COC2=CC3=C(C=C2)NC(=O)N3)NC(=O)C4=CC=CN(C4=O)CC5=CC(=C(C=C5)F)F
Summary of the method: (§1)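 Aliquots of K562 cells (2×10^6 cells/mL) treated with 10 μM compound for 30 min were heated for 3 min over 48°C-58°C. After pooling and extraction in PBS with 0.5% NP-40 at 4°C, soluble protein from a 21,000xg, 90 min spin was quantified by TMTpro 16plex LC-MS/MS with channel sums equalised. Thermal stability is expressed against control samples, from duplicates, as a log2 fold change.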

Protein sequences, listed by entry. Tags and fused reporters are not part of them. Lines headed by an entry give the natural chain unless they say otherwise; changes in a name come on top.
UniProt Q03111: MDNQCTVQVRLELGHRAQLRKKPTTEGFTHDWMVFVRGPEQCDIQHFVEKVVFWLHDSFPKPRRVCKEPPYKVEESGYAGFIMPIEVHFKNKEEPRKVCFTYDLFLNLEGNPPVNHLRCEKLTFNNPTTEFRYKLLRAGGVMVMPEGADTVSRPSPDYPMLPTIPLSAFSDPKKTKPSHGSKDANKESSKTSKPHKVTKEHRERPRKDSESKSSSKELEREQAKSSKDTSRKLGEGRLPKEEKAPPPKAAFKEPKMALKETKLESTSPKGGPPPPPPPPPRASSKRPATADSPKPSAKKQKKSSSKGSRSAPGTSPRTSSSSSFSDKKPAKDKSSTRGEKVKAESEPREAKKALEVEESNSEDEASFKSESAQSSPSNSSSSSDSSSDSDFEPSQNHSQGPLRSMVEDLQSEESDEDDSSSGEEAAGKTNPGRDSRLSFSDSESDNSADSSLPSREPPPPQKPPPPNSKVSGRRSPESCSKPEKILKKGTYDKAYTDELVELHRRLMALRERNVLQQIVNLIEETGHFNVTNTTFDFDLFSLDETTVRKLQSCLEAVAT
UniProt Q9H081: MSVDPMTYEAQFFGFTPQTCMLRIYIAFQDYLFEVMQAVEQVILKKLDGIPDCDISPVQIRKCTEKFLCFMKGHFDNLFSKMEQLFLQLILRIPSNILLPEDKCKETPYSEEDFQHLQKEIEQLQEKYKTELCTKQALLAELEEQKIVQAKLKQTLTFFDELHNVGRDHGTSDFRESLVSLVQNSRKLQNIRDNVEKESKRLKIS
UniProt Q14149: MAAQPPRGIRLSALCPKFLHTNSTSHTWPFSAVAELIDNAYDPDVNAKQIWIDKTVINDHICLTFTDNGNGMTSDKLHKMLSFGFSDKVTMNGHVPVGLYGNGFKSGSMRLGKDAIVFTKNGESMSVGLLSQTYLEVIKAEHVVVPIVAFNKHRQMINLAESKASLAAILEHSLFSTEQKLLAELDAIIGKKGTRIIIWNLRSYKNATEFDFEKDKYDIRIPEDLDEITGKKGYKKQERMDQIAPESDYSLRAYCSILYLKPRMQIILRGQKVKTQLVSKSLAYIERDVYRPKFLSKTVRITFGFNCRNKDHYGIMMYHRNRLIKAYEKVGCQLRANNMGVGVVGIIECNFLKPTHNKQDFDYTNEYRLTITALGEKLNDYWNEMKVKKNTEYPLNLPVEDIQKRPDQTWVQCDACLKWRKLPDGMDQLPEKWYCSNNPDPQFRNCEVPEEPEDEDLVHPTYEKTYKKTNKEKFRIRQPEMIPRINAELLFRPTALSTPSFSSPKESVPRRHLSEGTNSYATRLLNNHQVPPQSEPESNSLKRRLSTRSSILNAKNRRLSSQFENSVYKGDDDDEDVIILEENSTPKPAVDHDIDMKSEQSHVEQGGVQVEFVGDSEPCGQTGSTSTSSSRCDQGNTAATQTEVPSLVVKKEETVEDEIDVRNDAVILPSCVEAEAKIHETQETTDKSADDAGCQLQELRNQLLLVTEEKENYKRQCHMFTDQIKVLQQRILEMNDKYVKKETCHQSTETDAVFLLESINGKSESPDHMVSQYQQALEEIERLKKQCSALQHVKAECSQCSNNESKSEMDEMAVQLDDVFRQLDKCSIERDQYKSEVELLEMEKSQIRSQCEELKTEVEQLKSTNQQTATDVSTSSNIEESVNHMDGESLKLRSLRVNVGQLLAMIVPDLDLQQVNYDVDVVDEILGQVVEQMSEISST
UniProt Q9NXC5: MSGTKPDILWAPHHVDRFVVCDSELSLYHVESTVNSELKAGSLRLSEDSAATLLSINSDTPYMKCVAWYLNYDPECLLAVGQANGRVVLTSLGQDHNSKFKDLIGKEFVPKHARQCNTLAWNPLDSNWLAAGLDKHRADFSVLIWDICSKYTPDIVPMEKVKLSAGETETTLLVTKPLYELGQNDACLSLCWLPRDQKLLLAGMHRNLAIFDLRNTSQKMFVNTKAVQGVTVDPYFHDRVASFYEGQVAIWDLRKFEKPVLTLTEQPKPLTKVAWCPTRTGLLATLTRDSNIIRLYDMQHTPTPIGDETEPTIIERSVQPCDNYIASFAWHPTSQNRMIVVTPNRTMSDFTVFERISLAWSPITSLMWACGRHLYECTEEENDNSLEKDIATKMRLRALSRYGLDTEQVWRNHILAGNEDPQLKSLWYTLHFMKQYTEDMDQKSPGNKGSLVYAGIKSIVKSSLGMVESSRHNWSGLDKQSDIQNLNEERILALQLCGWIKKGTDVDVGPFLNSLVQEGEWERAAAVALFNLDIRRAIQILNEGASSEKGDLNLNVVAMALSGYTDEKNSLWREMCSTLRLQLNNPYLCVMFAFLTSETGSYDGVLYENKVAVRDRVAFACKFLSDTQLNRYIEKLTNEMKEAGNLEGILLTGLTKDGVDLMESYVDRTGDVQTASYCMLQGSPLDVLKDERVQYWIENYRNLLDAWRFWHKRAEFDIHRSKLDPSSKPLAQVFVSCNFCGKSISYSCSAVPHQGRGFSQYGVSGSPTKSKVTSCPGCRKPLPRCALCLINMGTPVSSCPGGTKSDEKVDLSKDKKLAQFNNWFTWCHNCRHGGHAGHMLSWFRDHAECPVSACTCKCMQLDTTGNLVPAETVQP
UniProt O95297: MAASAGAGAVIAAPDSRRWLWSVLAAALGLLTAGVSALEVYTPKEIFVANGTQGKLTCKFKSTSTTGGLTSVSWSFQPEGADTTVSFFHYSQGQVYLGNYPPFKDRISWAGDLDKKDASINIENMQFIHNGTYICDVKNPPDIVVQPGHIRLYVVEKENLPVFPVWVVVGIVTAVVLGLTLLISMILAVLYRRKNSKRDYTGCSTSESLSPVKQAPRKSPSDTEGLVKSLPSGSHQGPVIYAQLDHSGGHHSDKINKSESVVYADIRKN
UniProt O95396: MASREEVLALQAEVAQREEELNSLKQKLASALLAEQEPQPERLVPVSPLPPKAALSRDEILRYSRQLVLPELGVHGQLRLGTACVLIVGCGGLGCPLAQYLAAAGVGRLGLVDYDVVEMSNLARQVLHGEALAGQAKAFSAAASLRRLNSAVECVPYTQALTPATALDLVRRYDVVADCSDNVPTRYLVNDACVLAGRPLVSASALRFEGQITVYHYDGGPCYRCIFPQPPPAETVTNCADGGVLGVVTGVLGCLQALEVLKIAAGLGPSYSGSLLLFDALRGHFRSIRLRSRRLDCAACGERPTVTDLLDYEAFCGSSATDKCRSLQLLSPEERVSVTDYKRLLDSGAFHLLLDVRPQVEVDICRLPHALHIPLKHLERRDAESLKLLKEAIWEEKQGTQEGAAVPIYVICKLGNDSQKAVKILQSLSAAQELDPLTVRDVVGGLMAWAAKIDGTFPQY
UniProt O94851, whole entry, looked up: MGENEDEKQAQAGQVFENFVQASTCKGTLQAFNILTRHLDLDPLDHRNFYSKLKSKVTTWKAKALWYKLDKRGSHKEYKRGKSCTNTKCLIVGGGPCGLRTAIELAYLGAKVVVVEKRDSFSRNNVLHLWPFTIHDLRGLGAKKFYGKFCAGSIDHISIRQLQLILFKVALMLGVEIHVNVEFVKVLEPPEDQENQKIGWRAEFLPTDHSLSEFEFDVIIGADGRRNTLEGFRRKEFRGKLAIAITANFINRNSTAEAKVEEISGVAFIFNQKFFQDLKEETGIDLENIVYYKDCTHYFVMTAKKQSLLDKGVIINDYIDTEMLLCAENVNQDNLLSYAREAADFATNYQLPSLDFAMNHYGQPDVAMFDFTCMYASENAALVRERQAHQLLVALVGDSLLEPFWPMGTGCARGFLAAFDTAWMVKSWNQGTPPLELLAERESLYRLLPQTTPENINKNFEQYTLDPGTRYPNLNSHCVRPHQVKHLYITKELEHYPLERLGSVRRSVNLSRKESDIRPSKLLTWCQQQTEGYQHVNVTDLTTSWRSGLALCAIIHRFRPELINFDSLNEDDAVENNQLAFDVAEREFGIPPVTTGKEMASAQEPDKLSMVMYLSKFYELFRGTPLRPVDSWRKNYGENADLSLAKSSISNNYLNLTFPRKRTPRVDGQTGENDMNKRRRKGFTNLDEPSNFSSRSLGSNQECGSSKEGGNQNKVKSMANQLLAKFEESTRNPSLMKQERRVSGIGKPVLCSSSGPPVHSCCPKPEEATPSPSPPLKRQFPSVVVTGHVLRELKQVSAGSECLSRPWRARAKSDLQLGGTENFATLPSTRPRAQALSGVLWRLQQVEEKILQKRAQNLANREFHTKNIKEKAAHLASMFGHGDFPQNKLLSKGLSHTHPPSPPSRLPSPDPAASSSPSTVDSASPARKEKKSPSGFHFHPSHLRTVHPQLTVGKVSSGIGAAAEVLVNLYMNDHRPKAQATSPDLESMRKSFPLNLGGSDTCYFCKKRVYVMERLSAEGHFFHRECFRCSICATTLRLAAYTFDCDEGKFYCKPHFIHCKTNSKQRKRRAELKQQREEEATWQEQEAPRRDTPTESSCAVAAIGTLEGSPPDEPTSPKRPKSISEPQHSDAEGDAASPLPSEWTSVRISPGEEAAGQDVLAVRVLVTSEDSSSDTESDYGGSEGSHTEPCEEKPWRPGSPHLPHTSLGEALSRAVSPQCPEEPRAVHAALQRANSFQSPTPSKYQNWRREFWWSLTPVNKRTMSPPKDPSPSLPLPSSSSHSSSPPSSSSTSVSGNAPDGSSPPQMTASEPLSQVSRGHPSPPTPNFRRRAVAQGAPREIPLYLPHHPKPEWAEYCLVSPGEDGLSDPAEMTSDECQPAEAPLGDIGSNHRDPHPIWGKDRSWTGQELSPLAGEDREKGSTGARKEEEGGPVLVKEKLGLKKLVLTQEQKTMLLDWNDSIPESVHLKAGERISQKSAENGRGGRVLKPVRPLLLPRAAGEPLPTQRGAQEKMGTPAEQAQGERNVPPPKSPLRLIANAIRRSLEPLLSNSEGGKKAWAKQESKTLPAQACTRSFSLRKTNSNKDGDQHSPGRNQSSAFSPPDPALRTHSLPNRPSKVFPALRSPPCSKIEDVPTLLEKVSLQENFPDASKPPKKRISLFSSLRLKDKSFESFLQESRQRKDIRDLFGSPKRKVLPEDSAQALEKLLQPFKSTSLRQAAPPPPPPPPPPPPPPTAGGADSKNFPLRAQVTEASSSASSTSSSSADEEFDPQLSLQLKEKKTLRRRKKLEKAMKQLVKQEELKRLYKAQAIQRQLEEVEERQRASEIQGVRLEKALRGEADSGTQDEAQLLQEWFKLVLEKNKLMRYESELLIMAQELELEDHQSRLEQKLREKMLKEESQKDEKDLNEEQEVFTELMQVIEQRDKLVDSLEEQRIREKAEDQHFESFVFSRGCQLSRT
UniProt Q8N108: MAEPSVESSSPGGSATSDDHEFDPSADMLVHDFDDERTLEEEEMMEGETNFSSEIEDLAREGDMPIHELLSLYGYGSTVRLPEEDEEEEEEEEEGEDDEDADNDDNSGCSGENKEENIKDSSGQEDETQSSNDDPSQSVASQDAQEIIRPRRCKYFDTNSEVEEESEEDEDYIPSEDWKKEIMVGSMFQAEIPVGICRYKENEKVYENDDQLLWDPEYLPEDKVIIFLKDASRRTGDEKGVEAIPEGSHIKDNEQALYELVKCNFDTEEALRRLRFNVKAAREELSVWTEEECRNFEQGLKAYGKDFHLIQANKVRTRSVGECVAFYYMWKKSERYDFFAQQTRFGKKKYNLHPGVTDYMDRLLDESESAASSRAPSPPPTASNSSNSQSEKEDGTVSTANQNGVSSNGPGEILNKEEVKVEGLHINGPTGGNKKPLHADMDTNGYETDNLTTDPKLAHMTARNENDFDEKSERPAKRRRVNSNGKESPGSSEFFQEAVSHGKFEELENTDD
UniProt P14174: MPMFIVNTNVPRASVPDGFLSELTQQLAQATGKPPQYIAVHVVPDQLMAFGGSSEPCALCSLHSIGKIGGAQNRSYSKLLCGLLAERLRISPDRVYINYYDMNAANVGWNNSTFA
UniProt P25325: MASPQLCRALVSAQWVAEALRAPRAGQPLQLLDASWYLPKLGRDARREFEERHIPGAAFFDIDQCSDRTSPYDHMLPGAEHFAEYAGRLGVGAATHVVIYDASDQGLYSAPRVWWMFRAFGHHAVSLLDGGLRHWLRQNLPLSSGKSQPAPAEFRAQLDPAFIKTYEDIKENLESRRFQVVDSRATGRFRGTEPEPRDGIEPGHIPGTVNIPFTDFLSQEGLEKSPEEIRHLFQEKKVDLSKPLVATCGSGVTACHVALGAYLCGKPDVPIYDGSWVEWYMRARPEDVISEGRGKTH
UniProt P29372, whole entry, looked up: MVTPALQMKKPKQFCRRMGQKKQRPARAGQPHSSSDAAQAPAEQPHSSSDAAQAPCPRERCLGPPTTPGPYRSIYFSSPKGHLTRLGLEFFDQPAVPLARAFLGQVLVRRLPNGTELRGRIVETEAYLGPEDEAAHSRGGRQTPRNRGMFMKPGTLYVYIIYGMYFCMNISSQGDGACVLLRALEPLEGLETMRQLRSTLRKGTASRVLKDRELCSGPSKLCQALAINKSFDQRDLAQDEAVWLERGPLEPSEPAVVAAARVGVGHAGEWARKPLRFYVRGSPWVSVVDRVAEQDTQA

[2] = compound: CC1=C(SC2=C1C(=N[C@H](C3=NN=C(N32)C)CC(=O)N)C4=CC=C(C=C4)Cl)C
Summary of the method: as §1

[3] = compound: CC1=C2C(=CC=C1)N=C(N(C2=O)C3=CC=CC=C3C)CN4C=NC5=C(N=CN=C54)N
Summary of the method: as §1

[4] = compound: Cc1sc2c(c1C)C(c1ccc(Cl)cc1)=N[C@@H](CC(=O)OC(C)(C)C)c1nnc(C)n1-2
Summary of the method: as §1

[5] = compound: c1ccc([C@@H]2C[C@H]2NC2CCNCC2)cc1
Summary of the method: as §1

Measured: log2 fold change

MLLT1 (UniProt Q03111)
inactive: [1] 0.034 | [2] -0.136 | [3] -0.217 | [4] 0.07 | [5] 0.037

MRPL21 (UniProt Q7Z2W9)
inactive: [1] 0.002 | [2] -0.13 | [3] -0.138 | [4] 0.06 | [5] -0.058

MRAS (UniProt O14807)
inactive: [1] 0.013

MKNK1 (UniProt Q9BUB5)
inactive: [1] -0.056 | [2] 0.039 | [3] 0.065 | [4] 0.03 | [5] -0.009

MRPL46 (UniProt Q9H2W6)
inactive: [1] 0 | [2] -0.1 | [3] -0.037 | [4] 0.009 | [5] 0.026

MORC2 (UniProt Q9Y6X9)
inactive: [1] -0.293

MRPL24 (UniProt Q96A35)
inactive: [1] 0.009 | [2] -0.101 | [3] -0.094 | [4] -0.002 | [5] 0.001

MIS12 (UniProt Q9H081)
inactive: [1] -0.02 | [2] 0.013 | [3] 0.064 | [4] -0.117 | [5] -0.022

MRPL15 (UniProt Q9P015)
inactive: [1] 0.06 | [2] -0.142 | [3] -0.024 | [4] 0.157 | [5] 0.01

MORC3 (UniProt Q14149)
inactive: [1] -0.043 | [2] 0.014 | [3] 0.132 | [4] 0.017 | [5] 0.062

MICU1 isoform 3 (UniProt Q9BPX6)
inactive: [1] 0.005 | [2] -0.033 | [3] -0.06 | [4] 0.02 | [5] -0.036

MICOS13 (UniProt Q5XKP0)
inactive: [1] -0.018 | [2] 0.07 | [3] -0.032 | [4] 0 | [5] 0.003

MLLT10 (UniProt P55197)
inactive: [1] 0.058

MON1B (UniProt Q7L1V2)
inactive: [1] -0.032 | [2] 0.044 | [3] 0.056 | [4] -0.008 | [5] -0.064

MIOS (UniProt Q9NXC5)
inactive: [1] 0.022 | [2] -0.043 | [3] -0.027 | [4] 0.102 | [5] -0.011

MORF4L1 isoform 2 (UniProt Q9UBU8)
inactive: [1] 0.028 | [2] -0.018 | [3] 0.095 | [4] -0.029 | [5] 0.004

MRPL11 (UniProt Q9Y3B7)
inactive: [1] 0.033 | [2] -0.105 | [3] -0.069 | [4] 0.11 | [5] -0.042

MPZL1 (UniProt O95297)
inactive: [1] 0.037 | [2] 0.068 | [3] 0.033 | [4] 0.014 | [5] -0.023

MOCS3 (UniProt O95396)
inactive: [1] 0.057 | [2] 0.056 | [3] 0.04 | [4] -0.018 | [5] 0.146

MRPL54 (UniProt Q6P161)
inactive: [1] 0.091 | [2] -0.077 | [3] -0.139 | [4] 0.015 | [5] 0.101

MRPL39 (UniProt Q9NYK5)
inactive: [1] 0.045 | [2] -0.043 | [3] -0.117 | [4] 0.03 | [5] -0.053

MRPL49 (UniProt Q13405)
inactive: [1] 0.052 | [2] -0.041 | [3] 0.055 | [4] -0.058 | [5] -0.01

MRPL32 (UniProt Q9BYC8)
inactive: [1] 0.034 | [2] -0.157 | [3] -0.098 | [4] 0.017 | [5] 0.025

MINDY3 (UniProt Q9H8M7)
inactive: [1] -0.027 | [2] 0.021 | [3] 0.031 | [4] -0.039 | [5] -0.077

MKRN1 (UniProt Q9UHC7)
inactive: [1] 0.131 | [2] -0.045 | [3] -0.138 | [4] 0.046 | [5] 0.066

MOB1B isoform 2 (UniProt Q7L9L4)
inactive: [1] -0.019 | [2] 0.042 | [3] 0.012 | [4] 0.004 | [5] 0.007

MNAT1 (UniProt P51948)
inactive: [1] 0.011 | [2] 0.088 | [3] 0.005 | [4] 0.033 | [5] 0.068

MICAL2 (UniProt O94851)
inactive: [1] -0.078 | [2] 0.036 | [3] 0.074 | [4] -0.09 | [5] -0.016

MRPL3 (UniProt P09001)
inactive: [1] 0.056 | [2] -0.107 | [3] -0.056 | [4] 0.037 | [5] -0.055

MIER1 isoform 12 (UniProt Q8N108)
inactive: [1] -0.012 | [2] 0.073 | [3] 0.059 | [4] 0.016 | [5] 0.02

MORF4L2 (UniProt Q15014)
inactive: [1] 0.089 | [2] 0.001 | [3] -0.002 | [4] 0.028 | [5] 0.091

MINPP1 (UniProt Q9UNW1)
inactive: [1] -0.007 | [2] 0.002 | [3] -0.016 | [4] 0.009 | [5] 0.036

MRPL55 isoform 2 (UniProt Q7Z7F7)
inactive: [1] 0.008 | [2] -0.081 | [3] -0.028 | [4] 0.121 | [5] -0.003

MOB3A (UniProt Q96BX8)
inactive: [1] -0.027 | [2] 0.056 | [3] 0.157 | [4] -0.044 | [5] 0.017

MLST8 (UniProt Q9BVC4)
inactive: [1] -0.038 | [2] 0.062 | [3] 0.082 | [4] -0.05 | [5] -0.071

MRPL1 (UniProt Q9BYD6)
inactive: [1] 0.042 | [2] -0.063 | [3] -0.116 | [4] 0.154 | [5] 0.015

MRPL42 (UniProt Q9Y6G3)
inactive: [1] 0.11 | [2] -0.032 | [3] -0.14 | [4] 0.06 | [5] 0.097

MRPL19 (UniProt P49406)
inactive: [1] 0.003 | [2] -0.125 | [3] -0.082 | [4] 0.047 | [5] -0.022

MIF (UniProt P14174)
inactive: [1] -0.101 | [2] 0.016 | [3] 0.015 | [4] -0.083 | [5] 0.004

MPP1 (UniProt Q00013)
inactive: [1] -0.055 | [2] -0.06 | [3] 0.051 | [4] -0.024 | [5] 0.013

MPST isoform 2 (UniProt P25325)
inactive: [1] 0.05 | [2] 0.068 | [3] 0.071 | [4] 0.002 | [5] 0

MRPL30 isoform 2 (UniProt Q8TCC3)
inactive: [1] 0.046 | [2] -0.124 | [3] -0.123 | [4] 0.109 | [5] -0.04

MPG (UniProt P29372)
inactive: [1] -0.034 | [2] -0.003 | [3] 0.008 | [4] 0.06 | [5] 0.007

MRPL37 (UniProt Q9BZE1)
inactive: [1] -0.013 | [2] -0.048 | [3] -0.019 | [4] 0.012 | [5] -0.042

MNT (UniProt Q99583)
inactive: [1] -0.054 | [2] 0.168 | [3] 0.167 | [4] 0.027 | [5] -0.152

MOCOS (UniProt Q96EN8)
inactive: [1] 0.059 | [2] 0.033 | [3] 0.056 | [4] 0.024 | [5] 0.015

MICALL2 (UniProt Q8IY33)
inactive: [1] -0.083 | [2] 0.092 | [3] 0.053 | [4] -0.007 | [5] -0.09

MMAB (UniProt Q96EY8)
inactive: [1] 0.037 | [2] -0.009 | [3] 0 | [4] -0.035 | [5] 0.092

MRE11 isoform 3 (UniProt P49959)
inactive: [1] 0.012 | [2] -0.035 | [3] 0.004 | [4] 0.025 | [5] 0.046

MPRIP isoform 2 (UniProt Q6WCQ1)
inactive: [1] -0.014 | [2] 0 | [3] 0.022 | [4] -0.038 | [5] 0.005

MOCS2 (UniProt O96007)
inactive: [1] 0.042 | [2] 0.039 | [3] 0.035 | [4] -0.002 | [5] 0.032

MITD1 (UniProt Q8WV92)
inactive: [1] -0.058 | [2] 0.022 | [3] -0.326 | [4] 0.045 | [5] 0.06

MRPL43 isoform 4 (UniProt Q8N983)
inactive: [1] 0.059 | [2] -0.072 | [3] -0.11 | [4] 0.094 | [5] -0.034

MPLKIP (UniProt Q8TAP9)
inactive: [1] 0.001 | [2] -0.056 | [3] 0.03 | [4] -0.031 | [5] 0.027

MRPL38 (UniProt Q96DV4)
inactive: [1] 0.075 | [2] -0.181 | [3] -0.138 | [4] 0.17 | [5] -0.056

From the supplement of paper PMC10849652
